# Laboratory results: PubChem BioAssay AID686938 (Drosophila RNAi Screening Center, 2013)
# Test: 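Looking for CRAC channel components and the factors controlling them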 (primary screen)
# System: Drosophila S2R+ cells
# Reagents: long dsRNA against Drosophila genes, about 0.25 µg dsRNA per well, roughly 10,000 cells
# Duration: 5 days of knock-down before the calcium assay
# Challenge: thapsigargin (SERCA pump blocker) to empty calcium stores; entry signal taken 4 min after adding it
# Detection: 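Per-well fluo-4 fluorescence in two replicates, unnormalised, measured in resting cells and 4 min after store depletion by the SERCA blocker thapsigargin; ratio of the two present in few wells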
# Reading the numbers: calcium entry signal: higher = stronger calcium signal after store depletion; entry to resting ratio: higher = more calcium entry relative to resting level; resting calcium signal: higher = higher resting calcium signal
# Hit rule: 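Called when the plate z-score of the entry-to-rest ratio, mean of duplicates, falls below −3; wells with low overall dye signal (Fmax z below −2) or more than five off-targets excluded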
# Meaning of the calls: active = strongly reduced calcium entry; inactive = no strong reduction
# In all, the deposit lists about 23,000 reagents; this is a random part of those that have a named target and a result. Over the whole deposit, 75 (0.33%) got an active call. 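Raw plate signals without normalisation; calls rest on plate z-scores that were not deposited; ratio present for only 364 wells.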 Names joined by + are all predicted targets of the reagent. The record does not give: the dose of the treatment.
target,dsRNA,"calcium entry signal, replicate 1 (fluorescence units)","calcium entry signal, replicate 2 (fluorescence units)",entry to resting ratio,"resting calcium signal, replicate 1 (fluorescence units)","resting calcium signal, replicate 2 (fluorescence units)",activity call
dpr7,DRSC17109,3.85e7,3.70e7,,1.83e7,1.50e7,inactive
CG15225,DRSC04232,5.24e7,4.93e7,,2.41e7,2.12e7,inactive
CG15225,DRSC23269,5.97e7,3.25e7,,2.88e7,1.43e7,inactive
CG10920,DRSC17765,3.36e7,2.94e7,,1.63e7,1.48e7,inactive
SF1,DRSC16844,2.72e7,3.17e7,,1.44e7,5.31e7,inactive
CG1324,DRSC20496,4.34e7,4.29e7,,1.87e7,1.94e7,inactive
Aldh7A1,DRSC11083,4.21e7,4.99e7,,1.96e7,3.24e7,inactive
CG13670,DRSC10029,1.92e7,2.96e7,,9.21e6,1.39e7,inactive
CG15035,DRSC17967,3.83e7,3.31e7,,1.83e7,1.63e7,inactive
bgcn,DRSC04062,4.56e7,5.47e7,,2.19e7,2.40e7,inactive
bgcn,DRSC04063,4.19e7,4.73e7,,2.14e7,2.30e7,inactive
CG12470,DRSC18620,4.32e7,4.76e7,2.1,2.05e7,2.03e7,inactive
CG5880,DRSC15906,4.19e7,4.86e7,,1.98e7,2.17e7,inactive
CAH4,DRSC22433,3.36e7,3.07e7,,1.64e7,1.42e7,inactive
CG7420,DRSC00704,4.89e7,,,2.59e7,,inactive
Psa,DRSC08152,3.40e7,3.16e7,,1.55e7,1.62e7,inactive
Coq4 + frc,DRSC10381,6.68e7,7.73e7,,2.81e7,3.18e7,inactive
Coq4 + frc,DRSC10382,3.78e7,3.80e7,,1.57e7,1.54e7,inactive
Ugt36A1 + CG15418,DRSC00432,4.29e7,3.12e7,,1.86e7,1.44e7,inactive
Ent2,DRSC02124,4.45e7,,,2.40e7,,inactive
gus,DRSC04885,3.17e7,,,1.57e7,,inactive
gus,DRSC04886,3.39e7,4.84e7,,1.80e7,2.23e7,inactive
CG14200,DRSC19555,4.29e7,4.16e7,,2.33e7,2.04e7,inactive
CG14200,DRSC22979,3.47e7,3.64e7,,1.62e7,1.37e7,inactive

3 entries from above, arranged by “resting calcium signal, replicate 1 (fluorescence units)”, lowest first:
target,dsRNA,"calcium entry signal, replicate 1 (fluorescence units)","calcium entry signal, replicate 2 (fluorescence units)",entry to resting ratio,"resting calcium signal, replicate 1 (fluorescence units)","resting calcium signal, replicate 2 (fluorescence units)",activity call
gus,DRSC04885,3.17e7,,,1.57e7,,inactive
gus,DRSC04886,3.39e7,4.84e7,,1.80e7,2.23e7,inactive
Ent2,DRSC02124,4.45e7,,,2.40e7,,inactive
